# Laboratory results as given in the supplement of paper PMC8728848.
# The list shows a part of the results.
# B1: Mincle (Bos taurus) (protein)
# chain: MNSSTSPASQTERRCFSFQLFSWAIAGTSILLLSACFITRCVVTYSIFQLCDEKKFQPPGDSMELSCYNDGSGSVKNCCPLKWFHFQSSCYLFSPDTMSWRASLKNCSSMGAHLVVINTQEEQEFLYYTKPRKKEFYIGLTDQVTEGQWQWVDGTPFTKSLSFWDAGEPNNLVIVEDCATIRDSSNPRQNWNDVPCFFNMFRVCEMPERKI
# Tests used:
# Test in all cases: glycan array binding signal (z-score within array); higher = stronger binding
# Conditions in all cases: glycan notation: IUPAC condensed, linker removed
# [1] = target: Gal(b1-4)GlcNAc(b1-3)Gal(b1-4)GlcNAc(b1-6)[Gal(b1-3)]GalNAc
# Summary of the method: (§1)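 The binding signal is a Z-score computed within each array. Data were drawn from 3228 arrays in the Consortium for Functional Glycomics database, restricted to those with a known protein sequence. Scores were averaged over arrays of the same protein sequence at different concentrations or buffers, and over linkers, and negative values can be taken as non-binding.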
# [2] = target: Gal(b1-4)GlcNAc(b1-3)Gal(b1-4)[Fuc(a1-3)]GlcNAc(b1-3)Gal(b1-4)[Fuc(a1-3)]GlcNAc
# Summary of the method: as §1
# [3] = target: Gal(b1-4)GlcNAc(b1-3)GalNAc
# Summary of the method: as §1
# [4] = target: Gal(b1-4)GlcNAc(b1-3)[Fuc(a1-3)GlcNAc(b1-6)]Gal(b1-4)Glc
# Summary of the method: as §1
# [5] = target: Gal(b1-4)GlcNAc(b1-3)[Gal(b1-4)GlcNAc(b1-6)]Gal(b1-4)GlcNAc
# Summary of the method: as §1
# [6] = target: Gal(b1-4)GlcNAc(b1-3)[GlcNAc(b1-6)]Gal(b1-4)GlcNAc
# Summary of the method: as §1
# [7] = target: Gal(b1-4)GlcNAc(b1-6)Gal(b1-4)GlcNAc
# Summary of the method: as §1
# [8] = target: Gal(b1-4)GlcNAc(b1-6)GalNAc
# Summary of the method: as §1
# [9] = target: Gal(b1-4)GlcNAc(b1-6)[Gal(b1-3)]GalNAc
# Summary of the method: as §1
# [10] = target: Gal(b1-4)GlcNAc(b1-6)[Gal(b1-4)GlcNAc(b1-3)]GalNAc
# Summary of the method: as §1
# Gal(b1-4)GlcNAc6P = target: Gal(b1-4)GlcNAc6P
# Summary of the method: as §1
# Gal(b1-6)Gal = target: Gal(b1-6)Gal
# Summary of the method: as §1
# Gal3S(b1-3)GalNAc = target: Gal3S(b1-3)GalNAc
# Summary of the method: as §1
# Gal3S(b1-3)GlcNAc = target: Gal3S(b1-3)GlcNAc
# Summary of the method: as §1
# [11] = target: Gal3S(b1-3)[Fuc(a1-4)]GlcNAc
# Summary of the method: as §1
# Gal3S(b1-4)Glc = target: Gal3S(b1-4)Glc
# Summary of the method: as §1
# Gal3S(b1-4)Glc6S = target: Gal3S(b1-4)Glc6S
# Summary of the method: as §1
# Gal3S(b1-4)GlcNAc = target: Gal3S(b1-4)GlcNAc
# Summary of the method: as §1
# [12] = target: Gal3S(b1-4)[Fuc(a1-3)]Glc6S
# Summary of the method: as §1
# [13] = target: Gal3S(b1-4)[Fuc(a1-3)]GlcNAc
# Summary of the method: as §1
# [14] = target: Gal3S(b1-4)[Fuc(a1-3)]GlcNAc6S
# Summary of the method: as §1
# Gal3S4S(b1-4)GlcNAc = target: Gal3S4S(b1-4)GlcNAc
# Summary of the method: as §1
# Gal3S6S(b1-4)GlcNAc = target: Gal3S6S(b1-4)GlcNAc
# Summary of the method: as §1
# Gal3S6S(b1-4)GlcNAc6S = target: Gal3S6S(b1-4)GlcNAc6S
# Summary of the method: as §1
# Gal4S(b1-4)GlcNAc = target: Gal4S(b1-4)GlcNAc
# Summary of the method: as §1
# Gal4S6S(b1-4)GlcNAc = target: Gal4S6S(b1-4)GlcNAc
# Summary of the method: as §1
# Gal6P(b1-4)GlcNAc = target: Gal6P(b1-4)GlcNAc
# Summary of the method: as §1
# Gal6S(b1-3)GlcNAc = target: Gal6S(b1-3)GlcNAc
# Summary of the method: as §1
# Gal6S(b1-3)GlcNAc6S = target: Gal6S(b1-3)GlcNAc6S
# Summary of the method: as §1
# Gal6S(b1-4)Glc = target: Gal6S(b1-4)Glc
# Summary of the method: as §1
# Gal6S(b1-4)Glc6S = target: Gal6S(b1-4)Glc6S
# Summary of the method: as §1
# Gal6S(b1-4)GlcNAc = target: Gal6S(b1-4)GlcNAc
# Summary of the method: as §1
# Gal6S(b1-4)GlcNAc6S = target: Gal6S(b1-4)GlcNAc6S
# Summary of the method: as §1
# GalNAc(a1-3)Gal = target: GalNAc(a1-3)Gal
# Summary of the method: as §1
# GalNAc(a1-3)GalNAc = target: GalNAc(a1-3)GalNAc
# Summary of the method: as §1
# [15] = target: GalNAc(a1-3)GalNAc(b1-3)Gal(a1-4)Gal(b1-4)Glc
# Summary of the method: as §1
# [16] = target: GalNAc(a1-3)GalNAc(b1-3)Gal(a1-4)Gal(b1-4)GlcNAc
# Summary of the method: as §1
# GalNAc(b1-3)Gal = target: GalNAc(b1-3)Gal
# Summary of the method: as §1
# [17] = target: GalNAc(b1-3)Gal(a1-4)Gal(b1-4)GlcNAc
# Summary of the method: as §1
# [18] = target: GalNAc(b1-3)Gal(a1-4)Gal(b1-4)GlcNAc(b1-3)Gal(b1-4)Glc
# Summary of the method: as §1
# [19] = target: GalNAc(b1-3)Gal(a1-6)Gal(b1-4)Glc
# Summary of the method: as §1
# GalNAc(b1-3)GalNAc = target: GalNAc(b1-3)GalNAc
# Summary of the method: as §1
# GalNAc(b1-3)GlcNAc = target: GalNAc(b1-3)GlcNAc
# Summary of the method: as §1
# GalNAc(b1-4)Gal(b1-4)Glc = target: GalNAc(b1-4)Gal(b1-4)Glc
# Summary of the method: as §1
# GalNAc(b1-4)GlcNAc = target: GalNAc(b1-4)GlcNAc
# Summary of the method: as §1
binder,measurement,setting,value
B1,glycan array binding signal (z-score),[1],0.9
same,glycan array binding signal (z-score),[2],-0.437
same,glycan array binding signal (z-score),[3],0.177
same,glycan array binding signal (z-score),[4],-0.38
same,glycan array binding signal (z-score),[5],-1.01
same,glycan array binding signal (z-score),[6],-1.11
same,glycan array binding signal (z-score),[7],-0.745
same,glycan array binding signal (z-score),[8],0.406
same,glycan array binding signal (z-score),[9],-0.8
same,glycan array binding signal (z-score),[10],-0.524
same,glycan array binding signal (z-score),Gal(b1-4)GlcNAc6P,-0.685
same,glycan array binding signal (z-score),Gal(b1-6)Gal,-0.928
same,glycan array binding signal (z-score),Gal3S(b1-3)GalNAc,-0.61
same,glycan array binding signal (z-score),Gal3S(b1-3)GlcNAc,-0.963
same,glycan array binding signal (z-score),[11],3.35
same,glycan array binding signal (z-score),Gal3S(b1-4)Glc,-0.057
same,glycan array binding signal (z-score),Gal3S(b1-4)Glc6S,-0.359
same,glycan array binding signal (z-score),Gal3S(b1-4)GlcNAc,-0.819
same,glycan array binding signal (z-score),[12],1.34
same,glycan array binding signal (z-score),[13],0.049
same,glycan array binding signal (z-score),[14],-0.084
same,glycan array binding signal (z-score),Gal3S4S(b1-4)GlcNAc,-1.45
same,glycan array binding signal (z-score),Gal3S6S(b1-4)GlcNAc,-0.018
same,glycan array binding signal (z-score),Gal3S6S(b1-4)GlcNAc6S,-0.175
same,glycan array binding signal (z-score),Gal4S(b1-4)GlcNAc,-1.55
same,glycan array binding signal (z-score),Gal4S6S(b1-4)GlcNAc,-0.69
same,glycan array binding signal (z-score),Gal6P(b1-4)GlcNAc,-0.035
same,glycan array binding signal (z-score),Gal6S(b1-3)GlcNAc,-0.342
same,glycan array binding signal (z-score),Gal6S(b1-3)GlcNAc6S,-0.278
same,glycan array binding signal (z-score),Gal6S(b1-4)Glc,-0.119
same,glycan array binding signal (z-score),Gal6S(b1-4)Glc6S,-0.107
same,glycan array binding signal (z-score),Gal6S(b1-4)GlcNAc,-0.285
same,glycan array binding signal (z-score),Gal6S(b1-4)GlcNAc6S,-0.584
same,glycan array binding signal (z-score),GalNAc(a1-3)Gal,-1.18
same,glycan array binding signal (z-score),GalNAc(a1-3)GalNAc,0.166
same,glycan array binding signal (z-score),[15],0.275
same,glycan array binding signal (z-score),[16],-0.57
same,glycan array binding signal (z-score),GalNAc(b1-3)Gal,-0.19
same,glycan array binding signal (z-score),[17],0.003
same,glycan array binding signal (z-score),[18],0.197
same,glycan array binding signal (z-score),[19],-1.02
same,glycan array binding signal (z-score),GalNAc(b1-3)GalNAc,0.381
same,glycan array binding signal (z-score),GalNAc(b1-3)GlcNAc,-0.818
same,glycan array binding signal (z-score),GalNAc(b1-4)Gal(b1-4)Glc,0.029
same,glycan array binding signal (z-score),GalNAc(b1-4)GlcNAc,-0.149

# 4 successive records out of the list so far:
binder,measurement,setting,value
B1,glycan array binding signal (z-score),Gal6S(b1-4)Glc,-0.119
same,glycan array binding signal (z-score),Gal6S(b1-4)Glc6S,-0.107
same,glycan array binding signal (z-score),Gal6S(b1-4)GlcNAc,-0.285
same,glycan array binding signal (z-score),Gal6S(b1-4)GlcNAc6S,-0.584
